# The full ranking holds about 33,000 sequences; the median of “E-score (-0.5 to 0.5)” is about -0.016, and the highest 2% start at about 0.3. This is one part of the list.
# Target: T1, Yer184c (UniProt P39961)
# T1 sequence: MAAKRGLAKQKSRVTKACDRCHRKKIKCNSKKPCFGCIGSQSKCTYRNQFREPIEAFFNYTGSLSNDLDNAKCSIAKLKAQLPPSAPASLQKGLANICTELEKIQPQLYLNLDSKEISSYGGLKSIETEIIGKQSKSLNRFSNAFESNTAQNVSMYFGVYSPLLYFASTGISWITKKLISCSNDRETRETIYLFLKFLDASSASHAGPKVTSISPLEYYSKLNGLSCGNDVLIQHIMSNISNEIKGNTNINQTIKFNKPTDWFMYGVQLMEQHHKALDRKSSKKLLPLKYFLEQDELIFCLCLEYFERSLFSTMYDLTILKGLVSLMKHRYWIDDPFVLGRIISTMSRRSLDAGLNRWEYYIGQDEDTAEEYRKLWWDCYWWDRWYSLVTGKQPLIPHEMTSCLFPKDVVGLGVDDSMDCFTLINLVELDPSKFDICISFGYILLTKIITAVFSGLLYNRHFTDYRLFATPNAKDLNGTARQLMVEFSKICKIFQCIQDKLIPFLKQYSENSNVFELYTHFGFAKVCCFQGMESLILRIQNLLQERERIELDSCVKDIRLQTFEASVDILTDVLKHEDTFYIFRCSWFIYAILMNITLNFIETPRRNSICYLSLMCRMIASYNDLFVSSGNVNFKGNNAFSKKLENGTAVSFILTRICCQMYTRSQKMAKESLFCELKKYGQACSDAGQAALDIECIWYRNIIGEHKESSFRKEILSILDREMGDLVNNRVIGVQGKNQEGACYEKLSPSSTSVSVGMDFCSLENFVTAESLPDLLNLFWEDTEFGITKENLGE
# Experiment: PBM E-score (8-mer binding enrichment) (E-score (-0.5 to 0.5)); higher = stronger / more preferred TF binding
# Conditions: protein concentration: 100 nM; construct: GST-full length
# Procedure, shortened: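 Yeast transcription factors, full-length or as DNA-binding domains, were expressed with a GST tag using PURExpress in vitro transcription/translation. At about 100-200 nM they were applied to universal all-10-mer Agilent arrays, double-stranded by primer extension on fresh or once-stripped slides. Fluorescent anti-GST detected bound protein, and masliner normalised the scans. E-scores for ungapped eight-base words, pooled with reverse complements, came from the Universal PBM Analysis Suite.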
row,Sequence,PBM E-score
1,TCGATGAA,0.134
2,CGGTCTCA,0.0469
3,GTCCCTCA,-0.31
4,AGTTAAAT,0.103
5,GTCAAGCA,-0.115
6,TAAGTGGA,0.138
7,AGTCGCTG,-0.213
8,ATTCAACC,0.0144
9,ACAGTAAG,-0.0845
10,CCGGAAGC,0.329
11,ATCTCCAA,-0.059
12,CTTGATGC,-0.0365
13,AGATGGAG,-0.0905
14,AGGTGCCA,-0.18
15,ATAATGAT,0.162
16,CTTTCTCA,0.1
17,GAAAAAAC,0.222
18,ATACGGTA,0.0926
19,ATACCACA,0.0277
20,GCGGTAGC,-0.117
21,CACCTGGC,-0.23
22,GAGTAGGC,-0.0672
23,TCGGCAGA,0.274
24,ACCCAACC,-0.191
25,AAGAACTT,0.198

row,Sequence,PBM E-score
1,GAGACGAA,0.0967
2,CTTCGTTC,-0.21
3,CGAGACCC,-0.0577
4,CGTGTTCC,0.279
5,GCGTCTCC,-0.0943
6,ACCGCTTC,-0.0676
7,CCAGGTGA,-0.242
8,AGGGGGAC,-0.32
9,ACCTAACC,0.0931
10,CCAATCTC,0.0125
11,ATGGTATG,-0.237
12,GTATCTTA,0.197
13,CCAAATAA,0.135
14,AAATCAAG,-0.0251
15,ACATGACA,0.021
16,CTCATGTC,-0.121
17,GCAGGTGA,-0.136
18,AACGGCTT,-0.0158
19,AGCCATGG,-0.226
20,TACGGCTA,0.117
21,ATCGGTTC,0.152
22,AGCCTTCC,-0.109
23,CAGATGAG,-0.00883
24,CTAGGGCC,-0.119
25,CCGATCAC,0.264

row,Sequence,PBM E-score
1,TAAACCGA,0.165
2,AGGGCCAT,-0.296
3,AGCCCTGC,-0.268
4,GTTCGTCA,-0.0695
5,CGTGGGGA,-0.146
6,AGTAGATG,0.0588
7,CAGGCCAC,-0.163
8,AGCTCCGA,0.251
9,CGGGCCCG,0.351
10,CCGCTAAG,0.103
11,CAGACGCG,-0.121
12,ACCGGGAA,0.28
13,GGGAGTAA,0.109
14,CTATTCAA,0.0942
15,AGGGGTAC,-0.193
16,GTGACACA,0.0437
17,ACTCATTG,-0.146
18,AGCTTGGC,-0.0541
19,AGCACGCG,0.0315
20,AGAGCTGG,-0.0867
21,GGGGCCAA,-0.241
22,GACTGTAA,-0.0482
23,GGAGCCCA,-0.262
24,GCCTTTGA,-0.0799
25,GTAGTTAA,0.0718

row,Sequence,PBM E-score
1,ACTTAGGA,-0.0768
2,GCTATAGA,-0.0355
3,CGGACCTC,0.156
4,CCGGAGTC,0.235
5,AGTTTAAC,-0.053
6,GATGCGGC,0.0571
7,CGCTTGGC,-0.215
8,CGAGACTA,-0.0281
9,AGTAGACC,-0.0973
10,CACCCCTA,-0.296
11,CTGCCTGC,-0.179
12,GTAGCCCA,-0.285
13,GCAGGGGA,-0.385
14,CGGAACGC,0.241
15,AGCCTGGC,-0.283
16,ATACCCTA,-0.0562
17,CGTTGCAA,0.138
18,AATCTCTA,-0.0742
19,GCTAAGAC,0.0763
20,CTGTATCC,0.0659
21,CCGTTGGC,0.13
22,ATAAACGC,-0.0379
23,CAAGCTCG,0.212
24,CACCGCCG,0.0457
25,CAATATGA,0.0198

row,Sequence,PBM E-score
1,AATGTACC,-0.119
2,TGAACTAA,-0.00313
3,CTCGAGAG,-0.113
4,GGATAACC,-0.00491
5,AAGTTATC,0.04
6,CCTACTCA,-0.12
7,CGTTTCCC,0.0265
8,GTAGGAGA,-0.181
9,CCCAGTAG,-0.0348
10,GGCATAAA,0.14
11,AAAGACAG,0.0541
12,ACAGTGAA,0.0796
13,GACCTGAC,0.0117
14,AGAGGGCG,-0.0985
15,GAGGCCCA,-0.319
16,AGCCCCTA,-0.311
17,AAGCGGAG,-0.0887
18,CTCCGTAA,0.0982
19,CGCACAGA,-0.0315
20,CGCGACAG,-0.181
21,CCCATCTC,-0.19
22,CCCCCAAA,-0.319
23,TACCGCAA,0.105
24,CCTCTGAG,-0.0893
25,ACACGTTG,-0.15

# Looked up above.
# In PBM E-score, CGCGACAG has the entry -0.181
# In PBM E-score, AAGTTATC has the entry 0.04
# In PBM E-score, ACACGTTG has the entry -0.15
# In PBM E-score, CGCACAGA has the entry -0.0315
# In PBM E-score, AATGTACC has the entry -0.119
# In PBM E-score, CGTTTCCC has the entry 0.0265
# In PBM E-score, AGAGGGCG has the entry -0.0985

# The list goes on.

row,Sequence,PBM E-score
1,AGAAACGA,0.0949
2,ATGCCCCG,-0.139
3,ACATCCCC,-0.18
4,GAGATCGC,-0.0683
5,ACGGTGAG,-0.113
6,CATCCTGA,0.0635
7,CCATGGTA,-0.264
8,CATGCTTA,-0.103
9,TCTAATCA,0.158
10,GGATTTTA,-0.00628
11,AAGCGTCT,-0.258
12,CTACGTAG,-0.039
13,AAATCCTG,0.0774
14,CACCGTAC,-0.115
15,CCTAAAGA,-0.164
16,GTAATCGA,0.0544
17,ACGAACAC,0.22
18,AGTGGCTA,-0.0424
19,GAGATTCA,-0.0108
20,TGGAAACA,-0.0604
21,AGGCCTTA,-0.231
22,TATTATCA,0.159
23,CAATGACG,-0.0656
24,ATGTAAGC,-0.0898
25,AAGATCTT,0.031

row,Sequence,PBM E-score
1,CTCTGCAG,-0.0973
2,CGGCGTCA,-0.0269
3,CTTTTTAA,0.0456
4,CCCTTGAC,-0.203
5,CAGGACTA,-0.0635
6,CGATTTCA,-0.0128
7,CAACTATG,0.0212
8,CTCGTTTA,0.0119
9,CGTTTCCA,0.0491
10,CCAGCCGA,0.205
11,ACTATCAA,0.192
12,CGGAACTC,0.202
13,ACAAGCGG,0.0922
14,ACCGTAAT,-0.0105
15,GATGTCAC,0.0784
16,AATAGACC,0.113
17,ATCATGAC,0.024
18,ATGAGAAC,0.0724
19,CAGCGTAC,-0.147
20,CTCCTTTC,-0.22
21,AAGCTTTA,0.0442
22,GACCCAAC,-0.144
